Experimental data: PMC7334503
These are yes or no findings as the source states them, for the method shown. Binding seen in cells or lysates may run through a third protein. These calls come from enrichment with a bait or labelling near it, and not all partners need be listed. Tags and fused reporters may be left off the sequences shown. One block for each molecule: values may come before it.

By UniProt entry, the sequences of proteins in these tests, tags left out.
UniProt P18616: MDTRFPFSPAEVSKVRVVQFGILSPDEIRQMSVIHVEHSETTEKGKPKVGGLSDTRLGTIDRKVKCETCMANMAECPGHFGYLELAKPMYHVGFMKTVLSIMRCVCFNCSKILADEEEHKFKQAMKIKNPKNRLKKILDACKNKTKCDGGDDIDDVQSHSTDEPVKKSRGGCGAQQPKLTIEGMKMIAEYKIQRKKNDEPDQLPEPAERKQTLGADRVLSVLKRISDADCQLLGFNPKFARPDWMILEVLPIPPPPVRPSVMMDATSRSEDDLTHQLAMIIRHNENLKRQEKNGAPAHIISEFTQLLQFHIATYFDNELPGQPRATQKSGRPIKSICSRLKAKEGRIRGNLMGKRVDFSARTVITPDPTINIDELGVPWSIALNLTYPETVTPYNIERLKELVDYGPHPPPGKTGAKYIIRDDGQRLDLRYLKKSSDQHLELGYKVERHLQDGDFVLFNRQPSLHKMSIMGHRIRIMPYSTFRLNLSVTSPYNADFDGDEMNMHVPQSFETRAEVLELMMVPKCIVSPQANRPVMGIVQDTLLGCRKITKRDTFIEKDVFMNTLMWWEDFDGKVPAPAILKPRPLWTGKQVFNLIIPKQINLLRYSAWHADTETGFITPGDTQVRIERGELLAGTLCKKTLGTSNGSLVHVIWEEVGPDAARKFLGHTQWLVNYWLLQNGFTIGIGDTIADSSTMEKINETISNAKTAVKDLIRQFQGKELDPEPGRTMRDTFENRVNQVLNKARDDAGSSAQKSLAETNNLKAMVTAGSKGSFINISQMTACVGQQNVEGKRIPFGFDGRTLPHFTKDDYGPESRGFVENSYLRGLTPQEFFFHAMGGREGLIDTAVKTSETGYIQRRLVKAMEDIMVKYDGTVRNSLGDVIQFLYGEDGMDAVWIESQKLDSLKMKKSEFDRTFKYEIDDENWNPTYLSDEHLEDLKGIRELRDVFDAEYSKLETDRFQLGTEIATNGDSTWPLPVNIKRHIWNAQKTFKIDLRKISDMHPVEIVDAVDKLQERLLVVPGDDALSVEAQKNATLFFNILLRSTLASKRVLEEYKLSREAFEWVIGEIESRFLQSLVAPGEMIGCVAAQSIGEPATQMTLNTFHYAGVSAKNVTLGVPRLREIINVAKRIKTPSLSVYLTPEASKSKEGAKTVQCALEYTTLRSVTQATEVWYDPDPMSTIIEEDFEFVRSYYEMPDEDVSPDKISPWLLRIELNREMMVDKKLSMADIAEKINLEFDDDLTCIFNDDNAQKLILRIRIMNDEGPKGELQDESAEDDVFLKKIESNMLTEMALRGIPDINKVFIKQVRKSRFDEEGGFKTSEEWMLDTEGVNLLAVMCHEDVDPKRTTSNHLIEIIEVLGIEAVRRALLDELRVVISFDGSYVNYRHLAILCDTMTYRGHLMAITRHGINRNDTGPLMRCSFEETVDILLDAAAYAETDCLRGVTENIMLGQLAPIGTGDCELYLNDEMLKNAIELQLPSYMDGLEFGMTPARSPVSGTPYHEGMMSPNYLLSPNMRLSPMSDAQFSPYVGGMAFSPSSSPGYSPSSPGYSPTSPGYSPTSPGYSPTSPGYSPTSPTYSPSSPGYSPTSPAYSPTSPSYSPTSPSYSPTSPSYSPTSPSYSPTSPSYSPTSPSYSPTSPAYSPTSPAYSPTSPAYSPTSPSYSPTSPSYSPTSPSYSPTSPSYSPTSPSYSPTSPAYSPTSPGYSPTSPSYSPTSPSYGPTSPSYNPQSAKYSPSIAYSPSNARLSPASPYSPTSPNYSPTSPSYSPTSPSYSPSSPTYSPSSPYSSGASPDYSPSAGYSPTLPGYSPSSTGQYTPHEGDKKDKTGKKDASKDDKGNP
UniProt P38420: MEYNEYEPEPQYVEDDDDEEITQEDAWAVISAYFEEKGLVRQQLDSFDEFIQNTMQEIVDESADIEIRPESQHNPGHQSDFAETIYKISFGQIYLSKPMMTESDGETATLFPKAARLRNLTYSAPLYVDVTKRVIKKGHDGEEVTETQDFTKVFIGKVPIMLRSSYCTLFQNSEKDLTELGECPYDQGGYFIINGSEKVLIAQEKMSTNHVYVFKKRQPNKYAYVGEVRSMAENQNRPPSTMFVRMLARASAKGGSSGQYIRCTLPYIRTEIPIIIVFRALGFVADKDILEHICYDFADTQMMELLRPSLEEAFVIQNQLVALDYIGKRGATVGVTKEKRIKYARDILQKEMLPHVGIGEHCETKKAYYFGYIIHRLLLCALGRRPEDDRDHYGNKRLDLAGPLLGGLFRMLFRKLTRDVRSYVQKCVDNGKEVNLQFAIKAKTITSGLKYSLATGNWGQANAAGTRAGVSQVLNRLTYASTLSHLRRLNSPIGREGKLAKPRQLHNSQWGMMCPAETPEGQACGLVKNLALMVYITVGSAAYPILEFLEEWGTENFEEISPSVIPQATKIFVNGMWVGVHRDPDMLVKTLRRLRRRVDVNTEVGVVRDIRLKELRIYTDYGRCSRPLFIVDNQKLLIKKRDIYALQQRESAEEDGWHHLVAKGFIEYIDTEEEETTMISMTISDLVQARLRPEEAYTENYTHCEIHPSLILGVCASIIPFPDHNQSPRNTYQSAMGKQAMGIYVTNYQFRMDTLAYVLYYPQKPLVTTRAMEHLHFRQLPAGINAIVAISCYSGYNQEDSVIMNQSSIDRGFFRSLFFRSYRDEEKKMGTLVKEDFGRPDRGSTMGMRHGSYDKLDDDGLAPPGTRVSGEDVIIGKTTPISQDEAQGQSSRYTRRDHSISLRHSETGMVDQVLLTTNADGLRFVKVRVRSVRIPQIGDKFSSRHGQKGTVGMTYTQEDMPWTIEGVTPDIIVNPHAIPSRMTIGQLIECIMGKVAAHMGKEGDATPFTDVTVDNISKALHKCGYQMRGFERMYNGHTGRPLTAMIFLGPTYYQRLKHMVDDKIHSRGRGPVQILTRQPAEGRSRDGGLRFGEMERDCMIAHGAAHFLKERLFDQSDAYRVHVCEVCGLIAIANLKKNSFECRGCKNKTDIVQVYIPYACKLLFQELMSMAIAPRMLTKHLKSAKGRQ

Key:
[1] = target: T1, SDG26-GFP (Arabidopsis thaliana) (UniProt Q84WW6); assay: affinity purification with mass spectrometry; cross-linked nuclear immunoprecipitation and mass spectrometry (CLNIP-MS) of SDG26 and of LD from transgenic Arabidopsis plants; Col-0 and a line expressing GFP alone as negative controls
T1 sequence: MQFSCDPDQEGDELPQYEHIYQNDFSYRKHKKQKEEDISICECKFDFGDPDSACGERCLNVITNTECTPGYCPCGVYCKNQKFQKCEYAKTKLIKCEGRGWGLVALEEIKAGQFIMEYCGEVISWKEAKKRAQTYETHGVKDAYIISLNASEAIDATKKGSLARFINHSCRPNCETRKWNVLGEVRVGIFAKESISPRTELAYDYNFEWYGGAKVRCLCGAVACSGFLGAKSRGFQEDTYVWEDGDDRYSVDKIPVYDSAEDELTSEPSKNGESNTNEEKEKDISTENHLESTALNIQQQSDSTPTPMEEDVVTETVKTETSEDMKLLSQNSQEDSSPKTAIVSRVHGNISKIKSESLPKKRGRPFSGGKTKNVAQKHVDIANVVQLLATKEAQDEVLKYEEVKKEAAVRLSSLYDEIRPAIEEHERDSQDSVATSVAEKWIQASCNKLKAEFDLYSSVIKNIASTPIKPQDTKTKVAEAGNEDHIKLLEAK

[2] = target: T1, SDG26-GFP (Arabidopsis thaliana); assay: as above; remark: listed apart in the source
[3] = target: T1, SDG26-GFP (Arabidopsis thaliana); assay: affinity purification with mass spectrometry; GFP purifications of GFP-LD and SDG26-GFP from transgenic Arabidopsis plants (GFP-Trap Magnetic Agarose), no cross-linking; Col-0 and a line expressing GFP alone as negative controls
[4] = target: T2, FLD tagged at the carboxyl terminus with FLAG-TAP epitopes (FLD-FLAG-TAP) (Arabidopsis thaliana) (UniProt Q9CAE3); assay: affinity purification with mass spectrometry; FLD-FLAG-TAP immunopurified from a transgenic Arabidopsis line, no cross-linking; nontransgenic Col-0 as negative control
T2 sequence: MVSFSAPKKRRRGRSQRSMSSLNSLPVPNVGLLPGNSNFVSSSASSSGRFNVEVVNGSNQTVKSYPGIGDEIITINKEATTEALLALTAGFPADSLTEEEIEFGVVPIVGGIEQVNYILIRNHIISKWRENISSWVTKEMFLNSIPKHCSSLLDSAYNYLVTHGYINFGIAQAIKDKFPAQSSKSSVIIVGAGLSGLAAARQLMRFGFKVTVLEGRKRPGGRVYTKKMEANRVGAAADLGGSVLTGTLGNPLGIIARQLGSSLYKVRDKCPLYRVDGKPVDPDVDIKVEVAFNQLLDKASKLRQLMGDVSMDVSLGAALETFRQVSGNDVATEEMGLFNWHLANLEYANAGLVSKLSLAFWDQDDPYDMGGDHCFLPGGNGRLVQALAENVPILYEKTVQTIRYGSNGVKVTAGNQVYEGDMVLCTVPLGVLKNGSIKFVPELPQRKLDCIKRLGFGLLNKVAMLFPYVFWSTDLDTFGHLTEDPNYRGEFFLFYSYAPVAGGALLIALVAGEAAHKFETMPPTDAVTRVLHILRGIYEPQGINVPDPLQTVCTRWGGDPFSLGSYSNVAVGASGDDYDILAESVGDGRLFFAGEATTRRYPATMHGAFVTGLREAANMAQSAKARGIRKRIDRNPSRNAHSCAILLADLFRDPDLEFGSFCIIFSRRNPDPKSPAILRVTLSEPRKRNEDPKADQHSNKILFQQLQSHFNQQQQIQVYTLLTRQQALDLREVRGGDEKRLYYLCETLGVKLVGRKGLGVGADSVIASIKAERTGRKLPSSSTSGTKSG

Molecule: NRPB1 (from UniProt P18616 1-1839)
binding [1]: binds

B1: FCA (protein, UniProt O04425 1-747)
chain: MNGPPDRVDFKPMGPHHGGSFRPMGFAYDDGFRPMGPNGGVGGEGTRSIVGARYNYPAKYPPSESPDRRRFIGKAMESDYSVRPTTPPVQQPLSGQKRGYPISDHGSFTGTDVSDRSSTVKLFVGSVPRTATEEEIRPYFEQHGNVLEVALIKDKRTGQQQGCCFVKYATSKDADRAIRALHNQITLPGGTGPVQVRYADGERERIGTLEFKLFVGSLNKQATEKEVEEIFLQFGHVEDVYLMRDEYRQSRGCGFVKYSSKETAMAAIDGLNGTYTMRGCNQPLIVRFAEPKRPKPGESREMAPPVGLGSGPRFQASGPRPTSNFGDSSGDVSHTNPWRPATSRNVGPPSNTGIRGAGSDFSPKPGQATLPSNQGGPLGGYGVPPLNPLPVPGVSSSATLQQQNRAAGQHITPLKKPLHSPQGLPLPLRPQTNFPGAQAPLQNPYAYSSQLPTSQLPPQQNISRATAPQTPLNINLRPTTVSSATVQFPPRSQQQPLQKMQHPPSELAQLLSQQTQSLQATFQSSQQAISQLQQQVQSMQQPNQNLPLSQNGRAGKQQWAGSAIPRVASTTGSTPVSYVQTAAPAVSQSVGSVKCTWTEHTSPDGFKYYYNGLTGESKWEKPEEMIVFEREQQKQQQHQEKPTIQQSQTQLQPLQQQPQQVQQQYQGQQLQQPFYSSLYPTPGASHNTQYPSLPVGQNSQFPMSGIGQNAQDYARTHIPVGAASMNDISRTQQSRQSPQELMWKNKA
binding [2]: binds

B2: Cleavage/Polyadenylation Specificity Factor 160 (CPSF160) (protein, UniProt Q9FGR0 1-1442)
chain: MSFAAYKMMHWPTGVENCASGYITHSLSDSTLQIPIVSVHDDIEAEWPNPKRGIGPLPNVVITAANILEVYIVRAQEEGNTQELRNPKLAKRGGVMDGVYGVSLELVCHYRLHGNVESIAVLPMGGGNSSKGRDSIILTFRDAKISVLEFDDSIHSLRMTSMHCFEGPDWLHLKRGRESFPRGPLVKVDPQGRCGGVLVYGLQMIILKTSQVGSGLVGDDDAFSSGGTVSARVESSYIINLRDLEMKHVKDFVFLHGYIEPVIVILQEEEHTWAGRVSWKHHTCVLSALSINSTLKQHPVIWSAINLPHDAYKLLAVPSPIGGVLVLCANTIHYHSQSASCALALNNYASSADSSQELPASNFSVELDAAHGTWISNDVALLSTKSGELLLLTLIYDGRAVQRLDLSKSKASVLASDITSVGNSLFFLGSRLGDSLLVQFSCRSGPAASLPGLRDEDEDIEGEGHQAKRLRMTSDTFQDTIGNEELSLFGSTPNNSDSAQKSFSFAVRDSLVNVGPVKDFAYGLRINADANATGVSKQSNYELVCCSGHGKNGALCVLRQSIRPEMITEVELPGCKGIWTVYHKSSRGHNADSSKMAADEDEYHAYLIISLEARTMVLETADLLTEVTESVDYYVQGRTIAAGNLFGRRRVIQVFEHGARILDGSFMNQELSFGASNSESNSGSESSTVSSVSIADPYVLLRMTDDSIRLLVGDPSTCTVSISSPSVLEGSKRKISACTLYHDKGPEPWLRKASTDAWLSSGVGEAVDSVDGGPQDQGDIYCVVCYESGALEIFDVPSFNCVFSVDKFASGRRHLSDMPIHELEYELNKNSEDNTSSKEIKNTRVVELAMQRWSGHHTRPFLFAVLADGTILCYHAYLFDGVDSTKAENSLSSENPAALNSSGSSKLRNLKFLRIPLDTSTREGTSDGVASQRITMFKNISGHQGFFLSGSRPGWCMLFRERLRFHSQLCDGSIAAFTVLHNVNCNHGFIYVTAQGVLKICQLPSASIYDNYWPVQKIPLKATPHQVTYYAEKNLYPLIVSYPVSKPLNQVLSSLVDQEAGQQLDNHNMSSDDLQRTYTVEEFEIQILEPERSGGPWETKAKIPMQTSEHALTVRVVTLLNASTGENETLLAVGTAYVQGEDVAARGRVLLFSFGKNGDNSQNVVTEVYSRELKGAISAVASIQGHLLISSGPKIILHKWNGTELNGVAFFDAPPLYVVSMNVVKSFILLGDVHKSIYFLSWKEQGSQLSLLAKDFESLDCFATEFLIDGSTLSLAVSDEQKNIQVFYYAPKMIESWKGLKLLSRAEFHVGAHVSKFLRLQMVSSGADKINRFALLFGTLDGSFGCIAPLDEVTFRRLQSLQKKLVDAVPHVAGLNPLAFRQFRSSGKARRSGPDSIVDCELLCHYEMLPLEEQLELAHQIGTTRYSILKDLVDLSVGTSFL
binding [2]: binds

B4: LU… (LD) (endogenous) (protein, UniProt Q38796 1-953)
chain: MDAFKEEIEIGSSVESLMELLDSQKVLFHSQIDQLQDVVVAQCKLTGVNPLAQEMAAGALSIKIGKRPRDLLNPKAVKYLQAVFAIKDAISKRESREISALFGITVAQVREFFVTQKTRVRKQVRLSREKVVMSNTHALQDDGVPENNNATNHVEPVPLNSIHPEACSISWGEGETVALIPPEDIPPDISDSDKYFVENIFSLLRKEETFSGQVKLMEWIMQIQDASVLIWFLSKGGVLILTTWLSQAASEEQTSVLLLILKVLCHLPLHKASPENMSAILQSVNGLRFYRISDISNRAKGLLSRWTKLFAKIQAMKKQNRNSSQIDSQSQLLLKQSIAEIMGDSSNPEDILSLSNGKSENVRRIESSQGPKLLLTSADDSTKKHMLGSNPSYNKERRKVQMVEQPGQKAAGKSPQTVRIGTSGRSRPMSADDIQKAKMRALYMQSKNSKKDPLPSAIGDSKIVAPEKPLALHSAKDSPPIQNNEAKTEDTPVLSTVQPVNGFSTIQPVNGPSAVQPVNGPLAVQPVNGPSALQPVNGPSAVIVPVQADEIKKPSTPPKSISSKVGVMMKMSSQTILKNCKRKQIDWHVPPGMELDELWRVAAGGNSKEADVQRNRNRRERETTYQSLQTIPLNPKEPWDREMDYDDSLTPEIPSQQPPEESLTEPQDSLDERRIAAGAATTSSSLSSPEPDLELLAALLKNPDLVYALTSGKPSNLAGQDMVKLLDVIKTGAPNSSSSSNKQVEERVEVSLPSPTPSTNPGMSGWGQEGIRNPFSRQNQVGTAVARSGTQLRVGSMQWHQTNEQSIPRHAPSAYSNSITLAHTEREQQQYMQPKLHHNLHFQQQQQQPISTTSYAVREPVGQMGTGTSSSWRSQQSQNSYYSHQENEIASASQVTSYQGNSQYMSSNPGYESWSPDNSPSRNQLNMRGQQQQASRKHDSSTHPYWNQNKRWR
binding [2]: binds | binding [3]: binds | binding [4]: binds

Continued, values first:

binding [1]: binds
Molecule: NRPB2 (from UniProt P38420 1-1188)

binding [1]: binds
Molecule: SPT5

binding [2]: binds
B3: SPT16 (protein, UniProt O82491 1-1074)
chain: MADSRNGNARAPPSGVPPKAGNTYSIDVKNFISRARALYEHWKKHSADLWGSADALAIATPPASDDLRYLKSSALNIWLLGYEFPDTIMVFTKKQIHFLCSRNKASLLEVVKKPAHDELKLDVIMHVKPKGDDGTGLMDAIFRAIRDLSRGDGNDSQVVGHIAREAPEGKLLETWTERLKNANFQFVDITGGLSDLFAVKDDTEVMSVKKAAYLAYSVMKNVVVPNLESAIDEEKDVTHSALMDLTEKAILEPTKASVKLKPENVDICYPPIFQSGGKFDLKPSAASNDELLTYDPASIIICAVGARYNSYCSNVARTYLIDATSLQSKAYEVLLKAHEAAIDALRSGRKINTVYQAALSVVEKNAPEFVDKLTKSAGTGIGLEFRESGLNINAKNDKVLRPKMAFNVSLGFQNLECESESRSKNKKFSLLLADTVLVTDQKPELLTKCSKSVKDVAYSFKEDEEEEKPRKKARTSGSENYITKTALRSDDHVVSKEELRKQHQAELARQKNEETARRLAGDSSGAGDSRSTAKTSADVVAYKNVNDMPHKELMIQVDTRNEAVLLPIYGSLVPFHVATIRTVSGNQDTNRNCYIRIIFNVPGTPFNPHDSNSLKNQGAIYLKEVSFRTKDSRHSSEVTQQIKTLRRQVMARESERAERATLVTQEKLQLAGNKFKPLRLSELWIRPPFSGRKKIPGTLEAHANGFRYSTTRPDERVDVLFANIKHAFFQPAEKEMITLLHFHLHNHIMVGTKKTKDVQFYVEVMDVVQSLGGGRRSAYDPDEIDEEQRERDRKNKINMDFNHFANRVNDMWQLPQFASLDLEFDQPLRELGFHGVPHKTSAFIIPTSSCLVELIEYPFLVVSLSEIEIVNLERVGFGQKNFDMAIIFKDFKKDVLRVDSVPTSSLEGIKEWLDTTDIKYYESKLNLNWRQILKTITDDPQSFIDDGGWEFLNLDGSDSESGGSEESDKGYEPSDVEVESESEDEASESESLVESDDDEEEDSEQESEEEKGKTWDELEREATNADREHGVESDSEEERKRRKMKAFGKSRPGTSGGGGSSSMKNMPPSKRKHR
